Results are given in words; binding and its absence hold for the method and conditions named. A result given as binding can be weak or reduced; the word gives no strength.

The chains behind the UniProt entries cited, without tags or fusion partners. Where a name states a change or a piece, a line headed by the entry shows the natural chain unless it says otherwise. Residues count along the entry.
UniProt P08603, residues 19-1231: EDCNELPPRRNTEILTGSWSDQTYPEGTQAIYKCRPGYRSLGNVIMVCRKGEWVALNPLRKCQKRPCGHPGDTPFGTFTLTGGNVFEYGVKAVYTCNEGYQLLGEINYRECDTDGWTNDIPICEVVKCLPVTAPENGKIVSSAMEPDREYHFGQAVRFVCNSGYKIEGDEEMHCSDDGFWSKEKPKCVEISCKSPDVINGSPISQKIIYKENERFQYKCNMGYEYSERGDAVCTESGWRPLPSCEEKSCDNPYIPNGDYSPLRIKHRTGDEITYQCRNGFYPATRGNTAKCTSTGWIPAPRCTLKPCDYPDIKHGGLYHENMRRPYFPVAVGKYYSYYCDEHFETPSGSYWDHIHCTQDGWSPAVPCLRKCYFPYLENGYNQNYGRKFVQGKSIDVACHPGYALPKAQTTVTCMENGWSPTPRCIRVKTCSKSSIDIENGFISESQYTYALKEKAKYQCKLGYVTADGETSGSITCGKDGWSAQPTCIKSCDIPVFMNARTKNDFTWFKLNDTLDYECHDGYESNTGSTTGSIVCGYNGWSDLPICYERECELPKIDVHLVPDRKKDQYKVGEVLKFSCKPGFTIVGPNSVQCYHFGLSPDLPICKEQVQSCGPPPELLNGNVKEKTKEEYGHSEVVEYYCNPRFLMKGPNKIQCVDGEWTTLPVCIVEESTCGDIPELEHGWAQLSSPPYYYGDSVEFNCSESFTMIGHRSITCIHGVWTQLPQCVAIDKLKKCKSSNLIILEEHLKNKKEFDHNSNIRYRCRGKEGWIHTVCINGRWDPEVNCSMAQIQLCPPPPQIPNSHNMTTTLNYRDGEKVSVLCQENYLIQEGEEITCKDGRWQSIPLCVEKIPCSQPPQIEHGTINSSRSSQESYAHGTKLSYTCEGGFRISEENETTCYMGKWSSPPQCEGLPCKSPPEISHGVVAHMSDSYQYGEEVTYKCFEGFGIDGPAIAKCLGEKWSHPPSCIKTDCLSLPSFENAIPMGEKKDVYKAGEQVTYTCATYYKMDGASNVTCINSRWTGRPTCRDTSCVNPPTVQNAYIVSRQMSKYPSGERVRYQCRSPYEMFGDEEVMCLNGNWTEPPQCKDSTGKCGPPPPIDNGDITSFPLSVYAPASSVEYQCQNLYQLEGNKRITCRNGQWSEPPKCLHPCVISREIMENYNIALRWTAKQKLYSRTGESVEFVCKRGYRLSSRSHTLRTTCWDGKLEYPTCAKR

For this test, the target named is V62-CFH (recombinant human complement factor H, variant Val-62, Tyr-402, Glu-936) (human) (UniProt P08603). The test is described as follows: SPR; 0.6 uM CFH premixed with 1.2 uM PspCN and flowed over amine-coupled C3b or C3d; binding of PspCN to CFH is concluded from the enhanced response; both purified.

For “PspCN (S. pneumoniae choline-binding protein PspC, N-terminal domain) (from UniProt A0A0H2ZLS0) (domain or fragment)”, the binding result is “binds”.
